Source: PubChem BioAssay AID504467 (National Center for Advancing Translational Sciences (NCATS), 2011)
The campaign covered roughly 330,000 compounds. About 7,700 (2.3%) were called active. The shares of active, inactive and inconclusive entries below differ from those in the screen. The call rests on the fitted dose curve; in most records, active means well fitted inhibition curve with a large enough effect; inconclusive means small, poorly fitted or top-dose-only effect, or effect the other way; inactive means flat fitted curve, though single readings scatter. Potencies beside an inconclusive call are fits to weak or partial responses and may not hold up.

experiment: qHTS screen for small molecules that inhibit ELG1-dependent DNA repair in human embryonic kidney (HEK293T) cells expressing luciferase-tagged ELG1; settings: HEK293T ELG1-luciferase reporter, luminescence, 16 h, DNA damage induced by 5-fluorouridine; series mostly up to 46.1 µM; further: nearly all actives have a fitted effect of over 55% in size
How it was run: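 Quantitative HTS, concentration-response format. 2,000 cells/well co-treated with 5-fluorouridine and compound, 16 hr in 5% CO2 at 37 °C; ONE-Glo luminescence read after 30 min.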
Potency means the concentration at half of the fitted maximal effect.

| SMILES | Potency |
| --- | --- |
| Cc1ccc(NC(=S)N(Cc2cccs2)Cc2cc3cccc(C)c3[nH]c2=O)cc1 | inconclusive: 4.61 µM [inhibitor, full curve] |
| CCCCCN=C(C)c1c(O)c2ccccc2oc1=O | inconclusive: 20.6 µM [activator, partial curve] |
| O=C(COC(=O)c1cc(S(=O)(=O)N2CCCCC2)ccc1N1CCOCC1)NC1CCS(=O)(=O)C1 (stereo unspecified) | inactive |
| CCCN(C(=O)CSCc1ccccc1C)c1c(N)n(Cc2ccccc2)c(=O)[nH]c1=O | inconclusive: 0.411 µM [activator, partial curve, poor fit] |
| COc1ccc(NC(=O)N2CCOCC2)cc1OC | inactive |
| COC(=O)c1c(C)oc2ccc(N(C(=O)Oc3ccccc3)S(=O)(=O)c3ccccc3)cc12 | inconclusive: 18.4 µM [inhibitor, single point] |
| CC(C)OC(=O)CC12CN(C)CC(CC(=O)OC(C)C)(CN(C)C1)C2=O | inconclusive: 16.4 µM [activator, partial curve] |
| Cc1ccc(CN2CCCN(C)CC2)c(C)c1 | inactive |
| Cc1cc(NC(=O)COC(=O)C(Nc2ccc(C(F)(F)F)cc2Cl)C(C)C)no1 (stereo unspecified) | inconclusive: 5.8 µM [inhibitor, partial curve, poor fit] |
| Cn1cc(S(=O)(=O)c2ccccc2)c(=O)c2cc(Cl)ccc21 | inconclusive: 20.6 µM [activator, partial curve, poor fit] |
| Cc1ccccc1OCCNC(=O)CSc1ccc(C(F)(F)F)cc1[N+](=O)[O-] | inactive |
| CC(=O)Oc1c(C)c2c3c(c1OC(C)=O)[C@@H](C)CC[C@@H]3[C@@H](C)C[C@H]2C=C(C)C | inactive |
| CCOc1ccc2[nH]cc(S(=O)(=O)c3ccc(F)cc3)c(=O)c2c1 | inconclusive: 16.4 µM [inhibitor, single point] |
| COc1ccc(-n2c(Cc3cccs3)nnc2SCC(=O)Nc2ccc3c(c2)OCCO3)cc1 | inconclusive: 29.1 µM [inhibitor, single point] |
| Cc1ccc2[nH]c(=O)c(CN(Cc3ccccc3)Cc3nnnn3C3CCCC3)cc2c1 | inconclusive: 20.6 µM [inhibitor, partial curve, poor fit] |
| COCCN(C(=O)c1ccc(OCC(C)C)cc1)c1c(N)n(Cc2ccccc2)c(=O)[nH]c1=O | inactive |
| CCn1cc(C(=O)NC2CCCc3c2cnn3-c2cccc(C)c2C)cn1 (stereo unspecified) | inconclusive: 1.83 µM [activator, full curve, poor fit] |
| Cc1ccc(C(=O)c2ccc(C(F)(F)F)cc2)cc1 | inconclusive: 32.6 µM [activator, partial curve, poor fit] |
| Cc1ccc(S(=O)(=O)N2CCN(CCc3ccccc3)CC2)c(C)c1 | inconclusive: 32.6 µM [inhibitor, single point] |
| CC(C)N(Cc1ccccc1)C(=O)CN1c2cccc3cccc(c23)S1(=O)=O | inconclusive: 29.1 µM [inhibitor, single point] |
| CC1CCCN(C(=O)c2ccc3c(c2)OCCO3)C1 (stereo unspecified) | inconclusive: 16.4 µM [activator, partial curve] |
| CC1=NN(c2ccccc2)C(=O)/C1=C\c1cc(C)n(-c2ccccc2)c1C | inconclusive: 11.6 µM [activator, partial curve] |

| SMILES | Potency |
| --- | --- |
| CCOC(=O)N1CCN(C(=O)c2cnn3c(C(F)F)cc(-c4ccc(C)cc4)nc23)CC1 | active: 3.66 µM |
| CCOC(=O)c1cnn(-c2nc(-c3ccc(C)cc3)cs2)c1C(F)(F)F | inactive |
| CC(C)N1CCC(N2CCN(Cc3ccc(-c4ccc(Cl)cc4)o3)CC2CCO)CC1 (stereo unspecified) | inconclusive: 29.1 µM [inhibitor, single point] |
| CN(C)c1ccc(C#Cc2ccc3cc(CCO)oc(=O)c3c2)cc1 | inconclusive: 1.83 µM [activator, full curve] |
| CCCNC(=O)N1CCCC(C(N)=O)C1 (stereo unspecified) | inactive |
| CCOc1cc(Br)ccc1S(=O)(=O)N1CC(C)OC(C)C1 (stereo unspecified) | inconclusive: 9.2 µM [inhibitor, partial curve] |
| CC1(C)Cc2c(sc(NC(=O)COc3ccc(Cl)cc3)c2C(N)=O)C(C)(C)N1 | inconclusive: 23.1 µM [activator, partial curve, poor fit] |
| O=C(C1CCN(S(=O)(=O)N2CCOCC2)CC1)N1CCN(Cc2ccc3c(c2)OCO3)CC1 | inconclusive: 23.1 µM [inhibitor, single point] |
| COC(=O)c1sccc1NC(=O)Nc1cccc(C)c1C | inactive |
| CNC(=O)CSc1nc2nn(-c3ccccc3)c(=O)c-2c2n1CCCCC2 | inconclusive: 14.6 µM [activator, partial curve] |
| O=C(NC(=S)NC1CCS(=O)(=O)C1)c1cccs1 (stereo unspecified) | inactive |
| COc1ccc(C(=O)Nc2cc3c4c(c2)C(C)C(=O)N4CCC3)c(OC)c1 (stereo unspecified) | inconclusive: 20.6 µM [activator, partial curve, poor fit] |
| COc1ccc(C(=O)Nc2ccc(Nc3ccccc3)cc2)cc1[N+](=O)[O-] | inconclusive: 20.6 µM [inhibitor, partial curve] |
| COc1ccc(-c2ccnc3nc(/N=C/N(C)C)nn23)cc1 | inconclusive: 23.1 µM [activator, single point] |
| Cc1cccc(C(=O)OCC(=O)Nc2c(C)n(C)n(-c3ccccc3)c2=O)c1O | inactive |
| COC(=O)c1ccc2c(=O)[nH]c(COC(=O)CCC(=O)c3ccc(Cl)cc3)nc2c1 | inactive |
| CCC(C)NS(=O)(=O)c1ccc(NC(=O)C(Sc2ccccc2)c2ccccc2)cc1 (stereo unspecified) | inconclusive: 16.4 µM [inhibitor, single point] |
| Cc1[nH][nH]c(=O)c1N=Nc1ccc(Cl)cc1 | inactive |
| CCOc1cc([N+](=O)[O-])c2nc(N)sc2c1 | inconclusive: 29.1 µM [activator, single point] |
| Cn1c(SCC(=O)Nc2nccs2)nnc1-c1ccncc1 | inactive |
| CC(C)c1ccc(/C=N/NC(=O)C2CCCC2)cc1 | inconclusive: 14.6 µM [activator, partial curve] |
| COc1cc(CNCc2c[nH]c3ccccc23)cc(OC)c1 | inconclusive: 10.3 µM [inhibitor, partial curve] |

Compounds listed so far that have fluorine:

| SMILES | Potency |
| --- | --- |
| Cc1cc(NC(=O)COC(=O)C(Nc2ccc(C(F)(F)F)cc2Cl)C(C)C)no1 (stereo unspecified) | inconclusive: 5.8 µM [inhibitor, partial curve, poor fit] |
| Cc1ccccc1OCCNC(=O)CSc1ccc(C(F)(F)F)cc1[N+](=O)[O-] | inactive |
| CCOc1ccc2[nH]cc(S(=O)(=O)c3ccc(F)cc3)c(=O)c2c1 | inconclusive: 16.4 µM [inhibitor, single point] |
| Cc1ccc(C(=O)c2ccc(C(F)(F)F)cc2)cc1 | inconclusive: 32.6 µM [activator, partial curve, poor fit] |
| CCOC(=O)N1CCN(C(=O)c2cnn3c(C(F)F)cc(-c4ccc(C)cc4)nc23)CC1 | active: 3.66 µM |
| CCOC(=O)c1cnn(-c2nc(-c3ccc(C)cc3)cs2)c1C(F)(F)F | inactive |

Later entries

| SMILES | Potency |
| --- | --- |
| CC(=O)Nc1ccc(S(=O)(=O)N2CCN(C(=O)c3ncoc3-c3ccccc3F)CC2)cc1 | inconclusive: 23.1 µM [inhibitor, partial curve, poor fit] |
| CCC(=Nc1ccc(N)cc1)C1=C(O)C(C(=O)OC)C(C)(C)CC1=O (stereo unspecified) | inconclusive: 16.4 µM [activator, partial curve] |
| COCCCNC(=S)NCCNc1nc2c(C)c(C)ccc2cc1C#N | inconclusive: 29.1 µM [inhibitor, single point] |
| CSc1ccc(CNCC2CCCO2)cc1 (stereo unspecified) | inconclusive: 11.2 µM [inhibitor, partial curve, poor fit] |
| CC(C)=CCC/C(C)=C/CNC(=O)C[C@H]1C[C@H](C(=O)N2CCCCC2)[C@@]2(CCc3ccccc3)c3[nH]c4cc(-c5ccco5)ccc4c3CCN2C1=O | inactive |
| COc1cc(CCC(C)=O)ccc1OC(=O)c1c(F)cccc1Cl | inconclusive: 2.59 µM [activator, full curve] |
| O=C(Nc1ccccc1)OCc1cncs1 | inconclusive: 20.6 µM [activator, single point] |
| CCOC(=O)c1cc(-c2ccccc2)n(CCC(=O)N2CCN(c3ccccc3OC)CC2)c1C | inconclusive: 23.1 µM [inhibitor, partial curve] |
| Cc1ccc2nc(SCC(=O)Nc3ccc(F)cc3F)nc(=O)n2c1 | inconclusive: 16.4 µM [activator, partial curve, poor fit] |
| O=C(NCCS(=O)(=O)N1CCN(c2ccccc2)CC1)c1cccc(F)c1 | inactive |
| COc1ccc(N2CCOCC2)c(NC(=O)c2cccs2)c1 | inactive |
| Cc1noc(C)c1NC(=O)N(C)C[C@H]1Oc2ccc(NS(=O)(=O)c3cccs3)cc2C(=O)N([C@H](C)CO)C[C@@H]1C | inconclusive: 10.3 µM [activator, partial curve, poor fit] |
| CCOc1ccc(-n2c(C)c(C(C)=O)c(C(C)=O)c2C)cc1 | inconclusive: 18.4 µM [inhibitor, partial curve, poor fit] |
| C=CCN(C(=O)CSc1nc2c(sc3ccccc32)c(=O)n1CCN(CC)CC)c1ccccc1 | inconclusive: 18.3 µM [inhibitor, single point] |
| O=C1c2cccc(OCC(=O)N3CCCc4ccccc43)c2CCN1Cc1ccccc1 | inconclusive: 18.4 µM [inhibitor, single point] |
| CCc1nc(N2CCN(C(=O)c3ccccc3)CC2)c2c3c(sc2n1)CCCC3 | inconclusive: 18.3 µM [inhibitor, single point] |
| N#Cc1ccc(CSc2nnc(-c3cccc(S(=O)(=O)N4CCCCC4)c3)o2)cc1 | inconclusive: 29.1 µM [inhibitor, single point] |
| Cc1cc(N2CCC(C(N)=O)CC2)nc(-c2ccccc2)n1 | inconclusive: 18.4 µM [inhibitor, single point] |
| CC1=N/C(=C\c2ccc([N+](=O)[O-])cc2)C(=O)N1c1cc(Cl)ccc1C | inactive |
| CCCn1c(O)c(N=Nc2ccc3ccccc3n2)c2ccccc21 | inconclusive: 6.51 µM [activator, partial curve, poor fit] |
| Cc1cc(-c2ccco2)n(-c2ccccc2)n1 | inactive |
| N#Cc1cccc(NC(=O)CSc2sc3c(O)cc(=O)[nH]c3c2C#N)c1 | inactive |
